In publication doi:10.1101/2021.02.05.429932:
Like-named read-outs stand apart in the source and are kept apart here. Results are given in words; binding and its absence hold for the method and conditions named. In cells and extracts the contact can be indirect. A yes stands for co-enrichment or nearness to the bait. Other partners may have been found.

Amino acid sequences for entries named in this document (tags omitted). A change or cut given only in a name is not applied to a line headed by its entry.
UniProt Q9VKI2: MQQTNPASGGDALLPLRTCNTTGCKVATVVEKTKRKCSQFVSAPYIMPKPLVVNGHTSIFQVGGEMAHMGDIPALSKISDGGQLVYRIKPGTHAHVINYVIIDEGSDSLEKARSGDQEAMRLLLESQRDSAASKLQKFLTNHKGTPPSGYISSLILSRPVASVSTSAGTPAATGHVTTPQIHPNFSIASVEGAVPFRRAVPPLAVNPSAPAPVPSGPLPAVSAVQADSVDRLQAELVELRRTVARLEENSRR
UniProt P05205: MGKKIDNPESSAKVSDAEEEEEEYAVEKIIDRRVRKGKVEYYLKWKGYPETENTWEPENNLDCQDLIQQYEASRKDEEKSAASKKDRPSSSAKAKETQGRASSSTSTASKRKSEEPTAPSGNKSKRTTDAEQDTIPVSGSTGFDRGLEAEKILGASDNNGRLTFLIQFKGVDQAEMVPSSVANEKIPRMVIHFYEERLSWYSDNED
UniProt Q7KRX3: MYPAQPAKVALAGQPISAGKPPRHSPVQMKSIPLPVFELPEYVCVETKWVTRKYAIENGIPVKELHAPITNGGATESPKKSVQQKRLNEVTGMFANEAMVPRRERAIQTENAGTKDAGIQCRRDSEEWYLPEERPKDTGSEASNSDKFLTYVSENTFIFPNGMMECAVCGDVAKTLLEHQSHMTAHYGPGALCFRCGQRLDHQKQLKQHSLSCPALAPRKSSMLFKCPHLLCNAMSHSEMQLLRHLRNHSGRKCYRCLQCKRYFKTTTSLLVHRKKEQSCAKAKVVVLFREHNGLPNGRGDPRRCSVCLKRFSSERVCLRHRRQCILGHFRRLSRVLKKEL
UniProt Q9VAC4: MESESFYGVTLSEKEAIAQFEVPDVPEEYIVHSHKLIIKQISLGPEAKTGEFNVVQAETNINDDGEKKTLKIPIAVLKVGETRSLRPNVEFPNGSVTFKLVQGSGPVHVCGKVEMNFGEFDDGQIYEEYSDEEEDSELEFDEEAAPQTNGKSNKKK

What was measured:
Experiment in all cases: affinity purification with mass spectrometry
[1] = target: FLAG-HA-BOH2 (D. melanogaster) (UniProt Q9VKI2)
[2] = target: heterochromatin protein 1a (HP1a) (D. melanogaster (endogenous in SL2)) (UniProt P05205)
[3] = target: T1, nucleoplasmin (NLP) (D. melanogaster (endogenous in SL2)) (UniProt Q27415)
T1 sequence: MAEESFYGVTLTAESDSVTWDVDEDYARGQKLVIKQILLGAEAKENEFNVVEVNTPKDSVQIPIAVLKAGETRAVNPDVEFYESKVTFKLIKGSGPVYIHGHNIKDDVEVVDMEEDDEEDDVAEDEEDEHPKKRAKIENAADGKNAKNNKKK

[4] = target: FLAG-HA-BOH1 (D. melanogaster) (UniProt Q7KRX3)
[5] = target: FLAG-HA-BOH1 (D. melanogaster) (UniProt Q7KRX3); remark: listed apart in the source
[6] = target: Lethal hybrid rescue (LHR) (D. melanogaster (endogenous in SL2))
[7] = target: FLAG-HA-Hmr^+ (D. melanogaster)
[8] = target: FLAG-HA-BOH2 (D. melanogaster) (UniProt Q9VKI2); remark: listed apart in the source
[9] = target: heterochromatin protein 1a (HP1a) (D. melanogaster (endogenous in SL2)) (UniProt P05205); remark: listed apart in the source
[10] = target: Hybrid male rescue (HMR) (D. melanogaster (endogenous in SL2))
[11] = target: endogenously FLAG tagged HMR (D. melanogaster (endogenous in SL2))

**Q.** For “Buddy Of Hmr 1 (BOH1) (from UniProt Q7KRX3)”, which binding [1] is on record?
**A.** The binding was “binds”.

**Q.** What about the binding [2] of the same molecule?
**A.** Its binding is “binds”.

**Q.** What about the binding [3] of the same molecule?
**A.** Its binding is “binds”.

**Q.** “Buddy Of Hmr 2 (BOH2) (from UniProt Q9VKI2)” was tested. Which binding [4] did it give?
**A.** The binding was “binds”.

**Q.** What about the binding [2] of the same molecule?
**A.** Its binding is “binds”.

**Q.** What about the binding [3] of the same molecule?
**A.** The binding was “binds”.

**Q.** How did the binding [3] turn out when “Hybrid male rescue (HMR) (D. melanogaster (endogenous in SL2))” was run?
**A.** The binding was “binds”.

**Q.** Which binding [3] does the source give for “Lethal hybrid rescue (LHR) (D. melanogaster (endogenous in SL2))” here?
**A.** The binding was “binds”.

**Q.** What does the source list for “nucleophosmin (NPH) (from UniProt Q9VAC4)”?
**A.** binding [4]: binds; binding [1]: binds; binding [2]: binds; binding [3]: binds

B1: nucleoplasmin (NLP) (protein, UniProt Q27415 1-152)
chain: T1 sequence
**Q.** B1 was tested. Which binding [5] did it give?
**A.** Its binding is “binds”.

**Q.** And the binding [6]?
**A.** The binding was “binds”.

**Q.** And the binding [7]?
**A.** Its binding is “binds”.

**Q.** What about the binding [8] of the same molecule?
**A.** The binding was “binds”.

**Q.** And the binding [9]?
**A.** The binding was “binds”.

**Q.** And the binding [10]?
**A.** Its binding is “binds”.

**Q.** What about the binding [11] of the same molecule?
**A.** Its binding is “binds”.

B2: SU(HW) (protein, UniProt P08970 1-941)
chain: MSASKEGKEKKGKLLGVENISPPKDKRPATRMKLLNDVGAGEDSEASTTTTTSRTPSNKQEKRGSVAGSRIKILNEEILGTPKTEKRGATKSTAPAASTVKILNEKKTPSATVTAVETTKIKTSPSKRKKMEHYVLQAVKSENTKADTTVTVVTEEDDTIDFILADDEEVVPGRIENNNGQEIVVTEDDEDLGEDGDEDGEDSSGKGNSSQTKIKEIVEHVCGKCYKTFRRVQSLKKHLEFCRYDSGYHLRKADMLKNLEKIEKDAVVMEKKDICFCCSESYDTFHLGHINCPDCPKSFKTQTSYERHIFITHSEFSDFPCSICNANLRSEALLALHEEQHKSRGKPYACKICGKDFTRSYHLKRHQKYSSCSSNETDTMSCKVCDRVFYRLDNLRSHLKQHLGTQVVKKPEYMCHTCKNCFYSLSTLNIHIRTHTGEKPFDCDLCDKKFSALVALKKHRRYHTGEKPYSCTVCNQAFAVKEVLNRHMKRHTGERPHKCDECGKSFIQATQLRTHSKTHIRPFPCEQCDEKFKTEKQLERHVKTHSRTKRPVFSCAECKRNFRTPALLKEHMDEGKHSPKQQRSSMRSAVKIMERTDCAICDKNFDSSDTLRRHIRTVHECDPDDIFGVEPHPSKRAKKDIESEEVVPVALNTSAGSLISSQTDGNGVVVREFLVDEGDGAAQTITLENETYTILPLDGAIEGEQLTDEAGVKPEAKKEEAQVSPVVKKEQRKSLAASLAAAIADNLEESCSEDDFSGEILTEEDIKLKENVGKLIDMLVDPPILKKYGWPNAPEETVLCKVIENCGHDLTKGGENYAELDYGSRMREYCKLLFTVVIHNDSIKSLLNNFPIDDVIEYVLGDEDQDEGGLDKDNESHSGDEEAVSVTGETKTNEIREKPEKKEVSAKSEKKEIVGKAVDKDNSEEVVRENKKKPVGEQEKA
**Q.** For B2, which binding [7] is on record?
**A.** Its binding is “binds”.

B3: SU(VAR)3-7 (protein, UniProt P20193 1-1250)
chain: MDRDSSMQAKNLDAQCNPDLKMASANSETLASATHELKIMDVEGGALVDPDHIEEVETSMVIVVDDDDGDVAMVVEEDKHPMRDDPCIEDIMDDEHAPLVAELQSALNNPDDKQASEDPLLEDQEREPDAMSTKTEPSSDAESSHSYHDPMGLLERIEIHDPGDSQDDDDEDDESSNGGGVDGGMRRKMPRAQRWLLWMKRWPWILHEDSDGTLAFCLYCNISINVNNRSRHIQQHNVSLSHQERECNYLAFKKSEEETRGAISDNEIKHEFGTKSYVAAMKQKRISETEAFNNFNWLRWLRWHPWLERSMPTGTIGTCRICSVRMNVEFVYLRKRHETTKGHMEALRNLDSDKRSRKRKRSKSNSVTNSGGDEAEREKESEPEVGPEDAQDTPVVMMNGDVDSGDDPGKWCALIPDTNPQQCRCTLCNCTMAITSFLRHCKTRAHCHMLSTPAEKGSSDIRGIWAVFADMHPWLIADPEDPSIGYCSVCRKRFMYGNSEIKRKNHEKSEKHTLALASAKAGIEVGSADGRGGDNMDEEEAAASDQAQSSQTDDSEDNDDDNWSEIQKLGKGFAHKSSSEPRKATVRAGVRFYPWLCYSKDRKTQICKFCRVRFHNEAAKARHELSARHVKLVKQFKMRQAKLHQGTNTQTKHNAQDDEESQEQDEEYGEEEEDAEEDSQSNFDLGTVQARKTARADNKLFVKPIPATMKGKVMVWKGRFPWLSYKKNEQRGNYAWCKLCEVSLYLPSSKWASKHQRTSRHIRLRIDRKRNGGNPLKTSNKNSGEISTVVATASALASAEARQKAAMAELQAKYDWLDPDANDENHCHCRVCDSRLPIKVFYLRQHDASRKHVENKERQRANAAAAANAPSVSPTSTVDAERQESGMDKESENDMSVRSDGSTAEPLAKRSRRSMEVRRIIRALRDSMGKRQEERSQMDMARDMICSSFDIVTRLRTLERESVAHNESMAQAPPSVTVSPIKPPEPRHVMDLFFDSISPTMKSLPPDLAAEGKSKIMQLVCSLELRAMQRNATTPTPATVSASSKWPSSTTVTPVKTPPAPISAPLASVDADLHSSVVTTPHEYNNGQNNNNDKETVPKEPVTGASSAQVTINGSAKDLPENIRRILTSNQTQVTNRLETDSVRCVPLDKLTTQSRTNVNGRLSQGGTSEAPSTPQADLSNGNTLAMIRQIRVNNNNSSKITVTNTPQMQQPQQAQASITSSTPIMRGGPSSNGCQITTFRTMVNHNRRP
**Q.** Which binding [7] does the source give for B3 here?
**A.** Its binding is “binds”.
